# Experimental data reported in PubChem BioAssay AID2685 (National Center for Advancing Translational Sciences (NCATS), 2010).
# The other results are listed elsewhere or left out. Shown are side measurements of this screen, not its main read-out; they come without a call. Compounds called inactive in the main read-out are mostly missing here. Words in brackets tell the shape of the fitted curve; partial curves, single points and poor fits give uncertain potencies.
# Experiment: qHTS Assay for Lipid Storage Modulators in Drosophila S3 Cells;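 as to cell number change: cells counted by Cell Tracker Red CMTPX staining in the red channel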
# Settings: BODIPY lipid droplet fluorescence, 18-24 h; for cell number change: measured here: cell count max response, cells fed with added oleic acid
# How it was run: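 Laser-scanning cytometry quantifies lipid droplet accumulation (500–530 nm total intensity; droplet/cell object ratio) in oleic acid-fed (400 uM added) Drosophila S3 cells treated with a concentration series. 20 uM Triacsin C defined 100% inhibition.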
# [1] = measured here: lipid fluorescence (Fed channel) AC50, cells fed with added oleic acid
# [2] = measured here: cell number channel AC50, cells fed with added oleic acid
Structure (SMILES),cell number change [%],AC50 [1],AC50 [2]
Cc1cc(C)cc(Nc2cc(=O)n(C3CCCCC3)c(=O)[nH]2)c1,-13.1,"6.51 µM [falling, single point]",–
O=C(CSc1nnnn1-c1ccc(F)cc1)NC1CCCCC1,-5.73,"0.0164 µM [falling, full curve, poor fit]",–
CC(C)Cn1c(N)c(C(=O)COC(=O)CCNS(=O)(=O)c2ccccc2)c(=O)n(C)c1=O,–,–,"6.51 µM [rising, single point]"
CCCC(=O)Nc1cc2c(cc1C(=O)c1ccccc1)OCCO2,13.7,"6.51 µM [rising, partial curve]",–
O=C(COC(=O)c1ccc(Cl)c(Cl)c1)Nc1cccnc1Cl,3.26,"20.6 µM [rising, single point]",–
O=C(NC1CCCCCC1)c1c(O)c2cccc3c2n(c1=O)CCC3,25.6,"16.4 µM [rising, partial curve, poor fit]",–
Cc1ccc2nc(C)cc(Nc3ccc4c(c3)OCCO4)c2c1,6.3,"0.00517 µM [rising, full curve, poor fit]",–
c1ccc(COc2cccc(CN3CCN(c4ccccn4)CC3)c2)cc1,-25.1,"9.2 µM [falling, partial curve, poor fit]",–
CC(C)(O)CNC(=O)Nc1ccc(Cl)c(Cl)c1,27.7,"2.31 µM [rising, partial curve]","1.3 µM [rising, partial curve]"
COc1ccc(CCN(C)C2CCCN(C(=O)CCSC)C2)cc1OC (stereo unspecified),19.9,–,–
COc1cc(/C=N/N(C)c2ccccc2)cc(Cl)c1O,-21.6,–,–
O=C(c1ccc(-n2nc(C(F)(F)F)c3c2CCCC3)cc1)N1CCOCC1,5.43,"0.731 µM [rising, full curve]",–
Cc1cccc(NS(=O)(=O)c2nnc(NC(=O)c3ccc(Cl)cc3)s2)c1,-4.79,"0.00517 µM [falling, full curve, poor fit]",–
CCOC(=O)c1c(C)[nH]c(C(=O)OCC(=O)NC2(C#N)CCCCC2)c1C,–,"0.00411 µM [falling, full curve, poor fit]",–
Cc1c(Cl)cccc1NC(=O)Nc1ccc(C(=O)N2CCCC2)cc1,14.6,–,"0.058 µM [rising, full curve, poor fit]"
Cc1ccccc1NC(=O)Nc1ccc2c(c1)CCC2,13.9,"29.1 µM [rising, single point]",–
Cc1ccsc1C(=O)NCCc1ccco1,18.1,"1.03 µM [rising, partial curve]",–
O=S(=O)(c1ccc2ccccc2c1)N1CCN(S(=O)(=O)N2CCCCC2)CC1,-14.9,"1.03 µM [falling, full curve]",–
CNC(=S)NNC(=O)c1ccc2c(c1)OCO2,126,"20.6 µM [rising, partial curve]","29.1 µM [rising, partial curve]"

# 11 compounds from above, arranged by count of non-hydrogen atoms, high to low:
Structure (SMILES),cell number change [%],AC50 [1],AC50 [2]
CC(C)Cn1c(N)c(C(=O)COC(=O)CCNS(=O)(=O)c2ccccc2)c(=O)n(C)c1=O,–,–,"6.51 µM [rising, single point]"
O=S(=O)(c1ccc2ccccc2c1)N1CCN(S(=O)(=O)N2CCCCC2)CC1,-14.9,"1.03 µM [falling, full curve]",–
CCOC(=O)c1c(C)[nH]c(C(=O)OCC(=O)NC2(C#N)CCCCC2)c1C,–,"0.00411 µM [falling, full curve, poor fit]",–
Cc1cccc(NS(=O)(=O)c2nnc(NC(=O)c3ccc(Cl)cc3)s2)c1,-4.79,"0.00517 µM [falling, full curve, poor fit]",–
Cc1c(Cl)cccc1NC(=O)Nc1ccc(C(=O)N2CCCC2)cc1,14.6,–,"0.058 µM [rising, full curve, poor fit]"
CCCC(=O)Nc1cc2c(cc1C(=O)c1ccccc1)OCCO2,13.7,"6.51 µM [rising, partial curve]",–
Cc1cc(C)cc(Nc2cc(=O)n(C3CCCCC3)c(=O)[nH]2)c1,-13.1,"6.51 µM [falling, single point]",–
O=C(COC(=O)c1ccc(Cl)c(Cl)c1)Nc1cccnc1Cl,3.26,"20.6 µM [rising, single point]",–
Cc1ccccc1NC(=O)Nc1ccc2c(c1)CCC2,13.9,"29.1 µM [rising, single point]",–
CNC(=S)NNC(=O)c1ccc2c(c1)OCO2,126,"20.6 µM [rising, partial curve]","29.1 µM [rising, partial curve]"
Cc1ccsc1C(=O)NCCc1ccco1,18.1,"1.03 µM [rising, partial curve]",–

# The list continues.

Structure (SMILES),cell number change [%],AC50 [1],AC50 [2]
CCc1ccc2c(c1)/C(=N/N(C)C(=S)NC)C(=O)N2,-34.9,"0.461 µM [falling, full curve]","0.0184 µM [falling, full curve]"
Cc1ccc(S(=O)(=O)N2CCCC(C(=O)NC3CC3)C2)cc1 (stereo unspecified),7.14,"29.1 µM [rising, single point]",–
Cc1ccc(/C=N/NC(=O)CSc2nc3ccccc3c(=O)n2-c2ccccc2C)s1,-23.5,"0.651 µM [rising, partial curve]","3.26 µM [falling, full curve, poor fit]"
O=C(N/N=C/c1cccnc1)c1cc(O)c(O)c(O)c1,-2.01,"6.51 µM [rising, single point]",–
N/C(=N\OC(=O)c1cccc([N+](=O)[O-])c1)c1ccccn1,33.6,–,"16.4 µM [rising, partial curve, poor fit]"
N#Cc1ccccc1OCC(=O)OCC(=O)NC1CCCCC1,-0.44,"0.651 µM [rising, full curve, poor fit]",–
CCCCCc1ccc(-c2cn(Cc3ccc(C(=O)c4ccccc4)cc3)nn2)cc1,16.2,"5.8 µM [falling, full curve]",–
CCc1ccc(C(=O)Nc2cccnc2Oc2ccc(Cl)cc2)cc1,19.3,"7.31 µM [rising, partial curve, poor fit]",–
CCN(c1ccccc1)S(=O)(=O)c1cc2c(cc1C)N(C)CCO2,11.5,"20.6 µM [rising, partial curve, poor fit]",–
CNC(=O)CN(c1ccc(C23CC4CC(CC(C4)C2)C3)cc1)S(C)(=O)=O,-23.7,"0.291 µM [falling, full curve, poor fit]","0.259 µM [falling, full curve, poor fit]"
CCCCn1nc(C(=O)N2CCN(S(=O)(=O)c3ccccc3)CC2)c2ccccc2c1=O,76,–,"6.51 µM [rising, full curve]"
NNC(=O)CN1CCN(c2ncc(C(F)(F)F)cc2Cl)CC1,19,"2.06 µM [falling, partial curve]","1.64 µM [falling, partial curve]"
COc1cc2c(cc1OC)C(c1cccc([N+](=O)[O-])c1)N(C(=O)c1ccccc1C(=O)O)CC2 (stereo unspecified),4.4,–,–
N=c1ccn(Cc2ccc([N+](=O)[O-])cc2)cc1,-3.39,"3.26 µM [rising, single point]",–
CCCCn1c(N)c(N(CC(C)C)C(=O)CCCc2nc3ccccc3c(=O)[nH]2)c(=O)[nH]c1=O,-14,–,"1.16 µM [falling, full curve, poor fit]"
CCOC(=O)c1ccc(-c2n[nH]c(=O)c3ccccc23)cc1,19.3,"0.82 µM [rising, full curve]","0.411 µM [rising, full curve]"
CC(Sc1nnc(-c2ccccc2Br)o1)C(=O)N1CCOCC1 (stereo unspecified),52,–,"29.1 µM [rising, single point]"
O=C(NCC1CCCCC1)c1cc([N+](=O)[O-])ccc1N1CCOCC1,-34.7,"29.1 µM [falling, partial curve, poor fit]",–
Oc1ccc(-c2nc(-c3ccc(F)cc3)c(-c3ccncc3)[nH]2)cc1,15.5,"0.184 µM [rising, full curve, poor fit]","0.164 µM [rising, full curve, poor fit]"

# Just AC50 [2] and AC50 [1], for some of the entries so far:
Structure (SMILES) | AC50 [2] | AC50 [1]
Cc1ccc(/C=N/NC(=O)CSc2nc3ccccc3c(=O)n2-c2ccccc2C)s1 | 3.26 µM [falling, full curve, poor fit] | 0.651 µM [rising, partial curve]
CNC(=O)CN(c1ccc(C23CC4CC(CC(C4)C2)C3)cc1)S(C)(=O)=O | 0.259 µM [falling, full curve, poor fit] | 0.291 µM [falling, full curve, poor fit]

# Carrying on:

Structure (SMILES),cell number change [%],AC50 [1],AC50 [2]
O=C(NCC(=O)N1CCN(c2ccccc2F)CC1)c1ccco1,38.7,"20.6 µM [rising, partial curve]","29.1 µM [rising, single point]"
CCOC(=O)c1ccc(NC(=O)CN2C(=O)C(=O)N(CC(C)C)C2=O)cc1,5.81,–,–
CC1CCCC(C)N1CC(O)COc1ccc(Cl)cc1 (stereo unspecified),-18,–,"0.731 µM [falling, full curve, poor fit]"
COc1ccc(S(=O)(=O)Nc2ccc(S(=O)(=O)N3CCCCC3)cc2)cc1,-30.5,–,"11.6 µM [falling, partial curve, poor fit]"
COc1ccc(N2CCN(C(=O)CCNS(=O)(=O)c3ccc(C)cc3)CC2)cc1,-14.4,"1.64 µM [falling, partial curve]",–
COc1ccc(NC(=O)Cn2c(=O)oc3ccccc32)cc1,38.9,"23.1 µM [rising, single point]",–
Cc1ccc(NC(=O)CN(C)C(=O)COC(=O)c2ccc(Cl)cc2O)cc1,-44.1,–,"29.1 µM [falling, single point]"
Cc1ccc(S(=O)(=O)NCCC(=O)NC2CCCC2)cc1,-33.7,"29.1 µM [falling, single point]","29.1 µM [falling, single point]"
O=C1CC(c2cc(F)ccc2F)c2cc3c(cc2N1)CCC3 (stereo unspecified),-40.7,"25.9 µM [falling, single point]","16.4 µM [falling, single point]"
CSCCC(NC(=O)COc1ccccc1)C(=O)N1CCN(c2ccccc2O)CC1 (stereo unspecified),38.1,–,"0.184 µM [rising, full curve]"
CCCc1nnc(NC(=O)CCC(=O)N2CCN(Cc3ccccc3)CC2)s1,-16.8,"29.1 µM [rising, single point]",–
Clc1ccc(Cn2nnc(-c3ccccc3)n2)cc1,-44.3,"16.4 µM [falling, partial curve]","16.4 µM [falling, partial curve, poor fit]"
O=C(COC(=O)c1cc(Cl)ccc1[N+](=O)[O-])NCc1ccc(Cl)cc1Cl,16.5,"29.1 µM [falling, single point]",–
CNc1ccccc1-c1nc2ccccc2n(C)c1=O,5.64,"4.11 µM [rising, partial curve]",–
O=S(=O)(Nc1cccc(-c2cn3c(n2)SCC3)c1)c1ccccc1F,6.07,"2.31 µM [rising, partial curve, poor fit]",–
O=C1CC(N2CCN(Cc3ccccc3)CC2)C(=O)N1CCc1ccccc1 (stereo unspecified),20.6,"0.731 µM [falling, full curve]",–
Cc1ccc(S(=O)(=O)N(CC(O)CN2CCCC2)c2ccccc2)cc1 (stereo unspecified),-62.1,"0.651 µM [falling, full curve, poor fit]","16.4 µM [falling, single point]"
COc1ccc(OC)c(S(=O)(=O)N2CCC(C(=O)NC3CCCC3)CC2)c1,-5.26,–,–
CCOC(=O)CSc1nc2sc(C(=O)O)c(C)c2c(=O)[nH]1,-101,"29.1 µM [falling, single point]","5.17 µM [falling, full curve]"
